Binding data for one substance are collected here from article PMC3689669.

For the assay, the target named is T1, Mouse cytokeratin 10 (residues 1–570) (mouse) (UniProt P02535).
T1 sequence: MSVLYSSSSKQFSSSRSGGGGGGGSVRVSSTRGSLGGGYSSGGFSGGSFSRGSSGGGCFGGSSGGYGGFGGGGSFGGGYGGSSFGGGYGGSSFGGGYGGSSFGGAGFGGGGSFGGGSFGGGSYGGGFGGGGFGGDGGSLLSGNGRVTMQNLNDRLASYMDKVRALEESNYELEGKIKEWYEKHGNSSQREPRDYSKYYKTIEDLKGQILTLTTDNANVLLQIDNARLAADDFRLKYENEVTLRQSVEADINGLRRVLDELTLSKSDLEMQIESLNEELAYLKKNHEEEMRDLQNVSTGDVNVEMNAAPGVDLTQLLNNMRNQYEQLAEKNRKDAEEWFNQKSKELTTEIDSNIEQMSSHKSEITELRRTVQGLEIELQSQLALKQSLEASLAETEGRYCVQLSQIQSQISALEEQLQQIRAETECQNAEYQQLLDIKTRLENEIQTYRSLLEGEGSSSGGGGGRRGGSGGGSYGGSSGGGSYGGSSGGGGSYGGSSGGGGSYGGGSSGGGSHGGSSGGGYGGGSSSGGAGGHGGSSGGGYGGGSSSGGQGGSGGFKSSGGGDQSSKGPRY
The assay can be described thus: ELISA; human Fbg, Fn, α-elastin or K10 coated in bicarbonate buffer overnight; increasing concentrations of SpsD167–519, F288A or latch mutant; detected with anti-SpsD37–519 IgG; both purified. (In an ELISA, binding on a coated surface is turned into a signal by an enzyme label.)

No constants are given. Whether binding was seen depends on the method and setting. Binding calls can cover weak binding; strength is not graded here.

Regarding “SpsD_(167–519) F288A (domain or fragment)”, the binding result is on record as “binds”.
